Data as given in PubChem BioAssay AID1259254 (NCATS, 2017).
Shown is an unselected part of about 59,000 reagents tested. About 1,550 of all reagents (2.6%) count as active. 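G2 share is only a proxy for re-replication; each gene was hit by three separate siRNAs, and active genes were retested.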 Entries without a mark were called inactive. The numbers tell different reagents against one gene apart. Not all columns of the deposit are shown. Reagent sequences are not shown. Not given: the amount of reagent.

Test: 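Genome-wide screen for genes that prevent DNA re-replication in cancer cells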 (primary screen)
Cell system: human HCT116 colorectal cancer cells
Reagent: single siRNA against human genes
Duration: 3 days
Detection: 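Nuclei stained with Hoechst and imaged; cell-cycle phase assigned by DNA content; G2 share scaled per plate, non-targeting siRNA 0%, GMNN siRNA 100%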
Scale: G2 robust z-score and G2 cells, % of GMNN control: higher = more G2 cells, more excess DNA replication
Active means: 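An siRNA counts as active if its G2 robust z-score lies at least 5 MADs above the screen median; here such calls match roughly 38% of GMNN control or more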

no.	Target gene	reagent no.	G2 robust z-score	G2 cells, % of GMNN control
1	DDX59	1	-0.241	1.27
2	DDX59	2	-0.613	-1.35
3	DDX59	3	0.378	5.63
4	APOC3	1	-0.507	-0.602
5	APOC3	2	1.26	11.8
6	APOC3	3	0.452	6.14
7	PNKD	1	4.79	36.7
8	PNKD	2	-0.667	-1.73
9	PNKD	3	0.48	6.34
10	SEMG1	1	-0.872	-3.17
11	SEMG1	2	-0.153	1.89
12	SEMG1	3	0.0562	3.36
13	PNRC2	1	-0.299	0.861
14	PNRC2	2	-0.806	-2.71
15	PNRC2	3	0.761	8.32
16	MIR550A3HG	1	1.4	12.8
17	MIR550A3HG	2	-0.12	2.12
18	MIR550A3HG	3	0.533	6.72
19	PDZD9	1	-0.125	2.09
20	PDZD9	2	0.758	8.3
21	PDZD9	3	1.03	10.2
22	CYLC2	1	-0.0805	2.4
23	CYLC2	2	-0.802	-2.67
24	CYLC2	3	-0.698	-1.94
25	EIF2B4	1	-1.14	-5.03
26	EIF2B4	2	0.221	4.52
27	EIF2B4	3	2.33	19.4
28	LINC01091	1	-0.771	-2.46
29	LINC01091	2	-0.000949	2.96
30	LINC01091	3	-0.0132	2.87
31	YBX1	1	-0.484	-0.436
32	YBX1	2	0.235	4.62
33	YBX1	3	2.45	20.2
34	FUOM	1	-0.343	0.552
35	FUOM	2	0.643	7.49
36	FUOM	3	-0.59	-1.18
37	OR10A4	1	1.6	14.2
38	OR10A4	2	1.18	11.3
39	OR10A4	3	-0.662	-1.69
40	NFASC	1	-0.646	-1.58
41	NFASC	2	-0.198	1.57
42	NFASC	3	0.413	5.88
43	PITPNM3	1	-0.582	-1.13
44	PITPNM3	2	0.434	6.02
45	PITPNM3	3	-0.809	-2.73
46	SUGT1P4-STRA6LP-CCDC180	1	-0.76	-2.38
47	SUGT1P4-STRA6LP-CCDC180	2	0.143	3.97
48	SUGT1P4-STRA6LP-CCDC180	3	7.85 (active)	58.2
49	POU2F3-AS1	1	-1.05	-4.39
50	POU2F3-AS1	2	-0.749	-2.3
51	POU2F3-AS1	3	-0.874	-3.18
52	HDGFL2	1	-0.434	-0.0858
53	HDGFL2	2	1.76	15.4
54	HDGFL2	3	2.91	23.5
55	ORAI3	1	2.28	19
56	ORAI3	2	-0.541	-0.842
57	ORAI3	3	0.477	6.32
58	CAMKMT	1	0.151	4.03
59	CAMKMT	2	0.076	3.5
60	CAMKMT	3	-0.771	-2.46
61	CFAP126	1	-1	-4.1
62	CFAP126	2	-0.000276	2.97
63	CFAP126	3	1.85	16
64	MTMR11	1	0.153	4.05
65	MTMR11	2	0.136	3.92
66	MTMR11	3	2.55	20.9
67	NT5C1A	1	6.61 (active)	49.5
68	NT5C1A	2	-1.2	-5.44
69	NT5C1A	3	0.169	4.16

Reformatted: 8 of the entries above
FUOM #3
- G2 robust z-score: -0.59
- G2 cells, % of GMNN control: -1.18

OR10A4 #1
- G2 robust z-score: 1.6
- G2 cells, % of GMNN control: 14.2

OR10A4 #2
- G2 robust z-score: 1.18
- G2 cells, % of GMNN control: 11.3

OR10A4 #3
- G2 robust z-score: -0.662
- G2 cells, % of GMNN control: -1.69

NFASC #1
- G2 robust z-score: -0.646
- G2 cells, % of GMNN control: -1.58

NFASC #2
- G2 robust z-score: -0.198
- G2 cells, % of GMNN control: 1.57

NFASC #3
- G2 robust z-score: 0.413
- G2 cells, % of GMNN control: 5.88

PITPNM3 #1
- G2 robust z-score: -0.582
- G2 cells, % of GMNN control: -1.13
